In paper PMC6370788:
No constants are given. Whether binding was seen depends on the method and setting. Binding seen in cells or lysates may run through a third protein. Some binding calls cover weakened binding; strength is not graded here.

Sequences of proteins named here, by UniProt entry; tags and fusion partners are left off.
UniProt Q9Y3D0: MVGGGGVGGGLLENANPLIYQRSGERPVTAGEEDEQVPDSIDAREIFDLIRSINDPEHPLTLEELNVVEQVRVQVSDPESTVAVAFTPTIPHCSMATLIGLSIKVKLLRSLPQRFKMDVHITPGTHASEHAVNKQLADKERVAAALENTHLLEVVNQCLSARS

Target: MIP18/Fam96B/CIA2B, endogenous in HeLa cells (human (endogenous in HeLa)) (UniProt Q9Y3D0)
Assay: co-IP; Pierce Direct IP kit, anti-Ccdc117 or anti-CIA2B antibody coupled to the resin; 700 ug total protein of cycling native HeLa cell extract per column; 4 °C overnight; eluates analysed by Western blot

binding: binds
B1: Ccdc117, endogenous in HeLa cells (protein, UniProt Q8IWD4 1-279)
chain: MAALGRPFSGLPLSGGSDFLQPPQPAFPGRAFPPGADGAELAPRPGPRAVPSSPAGSAARGRVSVHCKKKHKREEEEDDDCPVRKKRITEAELCAGPNDWILCAHQDVEGHGVNPSVSGLSIPGILDVICEEMDQTTGEPQCEVARRKLQEIEDRIIDEDEEVEADRNVNHLPSLVLSDTMKTGLKREFDEVFTKKMIESMSRPSMELVLWKPLPELLSDKPKPSSNTKNYTGESQAKHVAAGTAFPQRTELFSEPRPTGMSLYNSLETATSTEEEMEL
